# Test results reported in US11576382B2, “Naphthalene isoxazoline compounds for controlling invertebrate pests” (FMC Corporation, priority 2018, dated 2023).
# Some entries share one result that the patent states for a list of compounds.
# Legend:
# Format in all cases: in vivo
# [1] = system: diamondback moth (Plutella xylostella (L.)); assay: Test A: control of diamondback moth, foliar spray on mustard plant; conditions: assessed after 6 days, very good to excellent levels of control efficacy
# [2] = system: fall armyworm (Spodoptera frugiperda (J. E. Smith)); assay: Test B: control of fall armyworm, foliar spray on corn (maize) plant; conditions: assessed after 6 days, very good to excellent levels of control efficacy
# [3] = system: corn planthopper (Peregrinus maidis (Ashmead)); assay: Test C: control of corn planthopper through contact and/or systemic means; conditions: sprayed at 50 ppm; corn (maize) plant; assessed after 6 days
# [4] = system: potato leafhopper (Empoasca fabae (Harris)); assay: Test D: control of potato leafhopper through contact and/or systemic means; conditions: Soleil bean plant, assessed after 6 days
# [5] = system: green peach aphid (Myzus persicae (Sulzer)); assay: Test E: control of green peach aphid through contact and/or systemic means; conditions: radish plant, assessed after 6 days
# Procedure: (§1) Formulation and Spray Methodology for Tests A-H
# (§2) Test compounds were formulated using a solution containing 10% acetone, 90% water and 300 ppm Activator 90® non-ionic surfactant (Loveland Products, Loveland, Colo., USA). The formulated compounds were applied in 1 mL of liquid through an atomizer nozzle positioned 1.27 cm (0.5 inches) above the top of each test unit. Test compounds were sprayed at the rates indicated, and each test was replicated three times.
# For evaluating control of green peach aphid (Myzus persicae (Sulzer)) through contact and/or systemic means, the test unit consisted of a small open container with a 12-15-day-old radish plant inside. This was pre-infested by placing on a leaf of the test plant 30-40 aphids on a piece of leaf excised from a culture plant (cut-leaf method). The aphids moved onto the test plant as the leaf piece desiccated. After pre-infestation, the soil of the test unit was covered with a layer of sand.
# Test compounds were formulated and sprayed at 250, 50 and 10 ppm. After spraying of the formulated test compound, each test unit was allowed to dry for 1 hour and then a black, screened cap was placed on top. The test units were held for 6 days in a growth chamber at 19-21° C. and 50-70% relative humidity. Each test unit was then visually assessed for insect mortality.
# [6] = system: cotton melon aphid (Aphis gossypii (Glover)); assay: Test F: control of cotton melon aphid through contact and/or systemic means; conditions: okra plant, assessed after 6 days
# Procedure: as §1, §2
# For evaluating control of cotton melon aphid (Aphis gossypii (Glover)) through contact and/or systemic means, the test unit consisted of a small open container with a 5-day-old okra plant inside. This was pre-infested with 30-40 insects on a piece of leaf according to the cut-leaf method, and the soil of the test unit was covered with a layer of sand.
# Test compounds were formulated and sprayed at 250, 50 and 10 ppm. After spraying, the test units were maintained in a growth chamber for 6 days at 19° C. and 70% relative humidity. Each test unit was then visually assessed for insect mortality.
# [7] = system: sweetpotato whitefly (Bemisia tabaci (Gennadius)); assay: Test G: control of sweetpotato whitefly through contact and/or systemic means; conditions: cotton plant infested with eggs, assessed after 13 days
# Procedure: as §1, §2
# For evaluating control of the sweetpotato whitefly (Bemisia tabaci (Gennadius)) through contact and/or systemic means, the test unit consisted of a small open container with a 12-14-day-old cotton plant inside. Prior to the spray application, both cotyledons were removed from the plant, leaving one true leaf for the assay. Adult whiteflies were allowed to lay eggs on the plant and then were removed from the test unit. Cotton plants infested with at least 15 eggs were submitted to the test for spraying.
# Test compounds were formulated and sprayed at 250, 50, and 10 ppm. After spraying, the test units were allowed to dry for 1 hour. The cylinders were then removed, and the units were taken to a growth chamber and held for 13 days at 28° C. and 50-70% relative humidity. Each test unit was then visually assessed for insect mortality.
# [8] = system: Western Flower Thrips (Frankliniellla occidentalis (Pergande)); assay: Test H: control of Western Flower Thrips through contact and/or systemic means; conditions: Soleil bean plant, assessed after 6 days, very good to excellent levels of control efficacy
SMILES,control efficacy: feeding damage (40% or less feeding damage and/or 100% mortality) ([1]; sprayed at 2 ppm) [%],control efficacy: feeding damage (40% or less feeding damage and/or 100% mortality) ([1]; sprayed at 10 ppm) [%],control efficacy: feeding damage (40% or less feeding damage and/or 100% mortality) ([2]; sprayed at 2 ppm) [%],control efficacy: feeding damage (40% or less feeding damage and/or 100% mortality) ([2]; sprayed at 10 ppm) [%],mortality [3],mortality ([4]; sprayed at 10 ppm),mortality ([4]; sprayed at 50 ppm),mortality ([5]; sprayed at 50 ppm),mortality ([6]; sprayed at 50 ppm),mortality ([7]; sprayed at 10 ppm),mortality ([7]; sprayed at 50 ppm),control efficacy: plant damage (30% or less plant damage and/or 100% mortality) ([8]; sprayed at 2 ppm) [%],control efficacy: plant damage (30% or less plant damage and/or 100% mortality) ([8]; sprayed at 10 ppm) [%],mortality ([6]; sprayed at 10 ppm),mortality ([4]; sprayed at 2 ppm),mortality ([5]; sprayed at 10 ppm),mortality ([7]; sprayed at 2 ppm)
O=C(NCc1ncccn1)c1ccc(C2=NOC(c3cc(Cl)c(F)c(C(F)(F)F)c3)(C(F)(F)F)C2)c2ccccc12 (centres unmarked) [Compound 11],≤ 40,≤ 40,≤ 40,≤ 40,at least 80%,at least 80%,at least 80%,at least 80%,at least 80%,at least 70%,at least 70%,≤ 30,≤ 30,,,,
CCN(C)C(=O)[C@H](C)NC(=O)c1ccc(C2=NOC(c3cc(Cl)c(F)c(Cl)c3)(C(F)(F)F)C2)c2ccccc12 (some centres unmarked) [Compound 44],≤ 40,≤ 40,,≤ 40,at least 80%,at least 80%,at least 80%,at least 80%,at least 80%,,at least 70%,≤ 30,≤ 30,at least 80%,,,
C[C@H](NC(=O)c1ccc(C2=NOC(c3cc(Cl)c(F)c(Cl)c3)(C(F)(F)F)C2)c2ccccc12)C(=O)N(C)C (some centres unmarked) [Compound 46],≤ 40,≤ 40,≤ 40,≤ 40,at least 80%,,at least 80%,,at least 80%,,at least 70%,≤ 30,≤ 30,,,,
CC(NC(=O)c1ccc(C2=NOC(c3cc(Cl)c(F)c(Cl)c3)(C(F)(F)F)C2)c2ccccc12)c1cnccn1 (centres unmarked) [Compound 58],≤ 40,≤ 40,,≤ 40,,at least 80%,at least 80%,at least 80%,at least 80%,,at least 70%,,≤ 30,,,,
CC(NC(=O)c1ccc(C2=NOC(c3cc(Cl)c(F)c(Cl)c3)(C(F)(F)F)C2)c2ccccc12)c1ncccn1 (centres unmarked) [Compound 63],,,,,at least 80%,,,at least 80%,at least 80%,at least 70%,at least 70%,≤ 30,,,at least 80%,at least 80%,at least 70%
O=C(NC1CC1)c1ccc(C2=NOC(c3cc(Cl)c(F)c(Cl)c3)(C(F)(F)F)C2)c2ccccc12 (centres unmarked) [Compound 70],≤ 40,≤ 40,≤ 40,≤ 40,,at least 80%,at least 80%,at least 80%,at least 80%,,at least 70%,≤ 30,≤ 30,at least 80%,,,
